# According to PubChem BioAssay AID318 (DTP/NCI, 2004):
# The list shows only some results of the screen, not a fair sample: it gathers tests that were run many times, whatever their T/C, doses with no T/C, and many T/C values between a quarter and a half above the control. Other doses and runs of a compound stand elsewhere. T/C is the treated group as % of the vehicle group. Some entries give survivors of the animals treated and no T/C: the source files T/C as zero there, which appears to mark a toxic dose or a test without result, not a measured value. Some survivor counts are full or nearly so, which does not show that the dose was tolerated: the source hardly ever lists a survival T/C far under the control, and the zero likely stands for such cases as well. Counts of survivors are from the toxicity check (mostly the fifth day) where no day follows; animals may have died later. Schedule codes are those of the source, taken here to give the interval after Q, in days (D) or hours (H), and the number of doses after X. Some entries were tested several times; their values stand side by side, smallest first. Where survival is the endpoint, the PubChem record calls one and a half times the control and up active, and a quarter to a half above the control has no call in these data; cut-offs in other NCI protocols can differ. Counts like (3×) give the number of equal values in this list.
# Tested on: BDF1 mice, P815 leukemia ip, survival T/C
# Experiment: NCI In Vivo Anticancer Drug Screen. Data for tumor model P815 Mast Cell Leukemia (Ascitic) (intraperitoneal) in B6D2F1 (BDF1) mice
# Conditions: higher T/C = longer survival
# Procedure: The antitumor activity of compounds was measured in mice bearing transplantable tumors. Survival or tumor size were measured and the results are expressed as the measurement made in the treated group (T) divided by the measurement made in the vehicle treated control group (C). The tumor model used in this assay is P815 Mast Cell Leukemia (Ascitic) (intraperitoneal) in B6D2F1 (BDF1) mice
# [1] = T/C endpoint: survival time, mean or median, dose: 25.0 mg/kg/injection, schedule: Q01DX015 (ip), vehicle: carboxymethylcellulose (CMC)
# [2] = T/C endpoint: survival time, mean or median, dose: 50.0 mg/kg/injection, schedule: Q01DX015 (ip), vehicle: carboxymethylcellulose (CMC)
# [3] = T/C endpoint: survival time, mean or median, dose: 100.0 mg/kg/injection, schedule: Q01DX015 (ip), vehicle: carboxymethylcellulose (CMC)
# [4] = T/C endpoint: survival time, mean or median, dose: 80.0 mg/kg/injection, schedule: Q01DX010 (ip), vehicle: saline
# [5] = T/C endpoint: survival time, mean or median, dose: 200.0 mg/kg/injection, schedule: Q01DX010 (ip), vehicle: saline
# [6] = T/C endpoint: survival time, mean or median, dose: 40.0 mg/kg/injection, schedule: Q01DX010 (ip), vehicle: saline
# [7] = T/C endpoint: survival time, mean or median, dose: 5.0 mg/kg/injection, schedule: Q01DX010 (ip), vehicle: saline
# [8] = T/C endpoint: survival time, mean or median, dose: 20.0 mg/kg/injection, schedule: Q01DX010 (ip), vehicle: saline
compound,measurement,setting,value
Clc1ccc2c(Cl)ncnc2c1,survivor count,[1],10 of 10
same,survivor count,[2],10 of 10
same,survivor count,[3],9 of 10
same,survivor count,"T/C endpoint: survival time, mean or median, dose: 200.0 mg/kg/injection, schedule: Q01DX015 (ip), vehicle: carboxymethylcellulose (CMC)",6 of 10
O=C(Nc1cccc(C(=O)Nc2ccc(C3=NCCN3)cc2)c1)c1ccc(C2=NCCN2)cc1,survivor count,[4],3 of 6
same,survivor count,"T/C endpoint: survival time, mean or median, dose: 120.0 mg/kg/injection, schedule: Q01DX010 (ip), vehicle: saline",1 of 6
same,survivor count,"T/C endpoint: survival time, mean or median, dose: 180.0 mg/kg/injection, schedule: Q01DX010 (ip), vehicle: saline",0 of 6
O=c1cnn(C2OC(CO)C(O)C2O)c(=O)[nH]1 (centres undefined),T/C,[5],133 % of control
same,T/C,"T/C endpoint: survival time, mean or median, dose: 400.0 mg/kg/injection, schedule: Q01DX010 (ip), vehicle: saline",133 % of control
Nc1nc(SCc2ccccn2)c2[nH]cnc2n1,survivor count,"T/C endpoint: survival time, mean or median, dose: 12.5 mg/kg/injection, schedule: Q01DX015 (ip), vehicle: carboxymethylcellulose (CMC)",10 of 10
same,survivor count,[1],10 of 10
same,survivor count,[2],10 of 10
same,survivor count,[3],10 of 10
NOCc1ccsn1,survivor count,"T/C endpoint: median survival time, dose: 180.0 mg/kg/injection, schedule: Q01DX010 (ip), vehicle: saline sonified",4 of 6
NC12CC3CC(CC(C3)C1)C2,survivor count,[5],2 of 6
C[C@@H]1C[C@@H]([C@H](O)CC2CC(=O)NC(=O)C2)C(=O)[C@@H](C)C1,T/C,[6],131 % of control
Cn1c(N)nc2nc[nH]c2c1=S,T/C,[6],133 % of control
Nc1nc(=S)c2[nH]cnc2[nH]1,T/C,"T/C endpoint: survival time, mean or median, dose: 1.25 mg/kg/injection, schedule: Q01DX010 (ip), vehicle: saline",127 and 140 % of control
same,T/C,"T/C endpoint: survival time, mean or median, dose: 2.5 mg/kg/injection, schedule: Q01DX010 (ip), vehicle: saline",127 % of control
same,T/C,[7],140 % of control
CC(=O)NC1=C(N2CC2)C(=O)C(NC(C)=O)=C(N2CC2)C1=O,survivor count,"T/C endpoint: survival time, mean or median, dose: 2.0 mg/kg/injection, schedule: Q01DX015 (ip), vehicle: carboxymethylcellulose (CMC)",9 of 10
same,survivor count,"T/C endpoint: survival time, mean or median, dose: 4.0 mg/kg/injection, schedule: Q01DX015 (ip), vehicle: carboxymethylcellulose (CMC)",10 of 10
CN(C)[C@@H]1C(=O)C(C(N)=O)=C(O)[C@@]2(O)C(=O)C3=C(O)c4c(O)cccc4C[C@H]3C[C@@H]12,T/C,"T/C endpoint: survival time, mean or median, dose: 15.0 mg/kg/injection, schedule: Q01DX015 (ip), vehicle: alkali diluted with saline",135 % of control
same,survivor count,"T/C endpoint: survival time, mean or median, dose: 60.0 mg/kg/injection, schedule: Q01DX015 (ip), vehicle: alkali diluted with saline",10 of 10
same,survivor count,"T/C endpoint: survival time, mean or median, dose: 120.0 mg/kg/injection, schedule: Q01DX015 (ip), vehicle: alkali diluted with saline",3 of 10
CN(C)CC(=O)c1ccc(O)c(O)c1,survivor count,"T/C endpoint: survival time, mean or median, dose: 675.0 mg/kg/injection, schedule: Q01DX010 (ip), vehicle: saline",6 of 6
O=NN(CCCl)C(=O)NCCCl,T/C,"T/C endpoint: survival time, mean or median, dose: 12.5 mg/kg/injection, schedule: Q01DX010 (ip), vehicle: saline",145 % of control
same,survivor count,"T/C endpoint: survival time, mean or median, dose: 25.0 mg/kg/injection, schedule: Q01DX010 (ip), vehicle: saline",6 of 6
same,survivor count,"T/C endpoint: survival time, mean or median, dose: 50.0 mg/kg/injection, schedule: Q01DX010 (ip), vehicle: saline",5 of 6 and 6 of 6
S=P(N1CCOCC1)(N1CC1)N1CC1,T/C,[7],"105, 107, 111 % of control (2×)"
same,T/C,"T/C endpoint: survival time, mean or median, dose: 10.0 mg/kg/injection, schedule: Q01DX010 (ip), vehicle: saline","110, 115, 116 % of control (2×)"
same,T/C,[8],"138, 144, 168 % of control"
same,survivor count,[8],6 of 6
CCOC(=O)c1[nH]c2ccccc2c1CN(CCCl)CCCl,survivor count,[4],0 of 6
